Numbering of substitutions follows the chain as printed. Results are given in words; binding and its absence hold for the method and conditions named. Binding seen in cells or lysates may run through a third protein. Some results given as binding are weak or reduced against the parent protein; the word gives no strength. Tags and fused reporters may be left off the sequences shown.
Assays:
Experiment in all cases: co-IP; anti-DYKDDDDK magnetic agarose IP of MARCH6-FLAG variants from 1% digitonin lysates of K562 cells still expressing endogenous MARCH6; 4 °C, 2 h; 30 mM Tris pH 8.0, 200 mM NaCl, 2 mM DTT, washes with 0.1% digitonin; Western blot for endogenous SQLE; eight biological replicates
MARCH6-FLAG WT (human) = biological target: T1, MARCH6-FLAG WT (human) (UniProt O60337)
T1 sequence: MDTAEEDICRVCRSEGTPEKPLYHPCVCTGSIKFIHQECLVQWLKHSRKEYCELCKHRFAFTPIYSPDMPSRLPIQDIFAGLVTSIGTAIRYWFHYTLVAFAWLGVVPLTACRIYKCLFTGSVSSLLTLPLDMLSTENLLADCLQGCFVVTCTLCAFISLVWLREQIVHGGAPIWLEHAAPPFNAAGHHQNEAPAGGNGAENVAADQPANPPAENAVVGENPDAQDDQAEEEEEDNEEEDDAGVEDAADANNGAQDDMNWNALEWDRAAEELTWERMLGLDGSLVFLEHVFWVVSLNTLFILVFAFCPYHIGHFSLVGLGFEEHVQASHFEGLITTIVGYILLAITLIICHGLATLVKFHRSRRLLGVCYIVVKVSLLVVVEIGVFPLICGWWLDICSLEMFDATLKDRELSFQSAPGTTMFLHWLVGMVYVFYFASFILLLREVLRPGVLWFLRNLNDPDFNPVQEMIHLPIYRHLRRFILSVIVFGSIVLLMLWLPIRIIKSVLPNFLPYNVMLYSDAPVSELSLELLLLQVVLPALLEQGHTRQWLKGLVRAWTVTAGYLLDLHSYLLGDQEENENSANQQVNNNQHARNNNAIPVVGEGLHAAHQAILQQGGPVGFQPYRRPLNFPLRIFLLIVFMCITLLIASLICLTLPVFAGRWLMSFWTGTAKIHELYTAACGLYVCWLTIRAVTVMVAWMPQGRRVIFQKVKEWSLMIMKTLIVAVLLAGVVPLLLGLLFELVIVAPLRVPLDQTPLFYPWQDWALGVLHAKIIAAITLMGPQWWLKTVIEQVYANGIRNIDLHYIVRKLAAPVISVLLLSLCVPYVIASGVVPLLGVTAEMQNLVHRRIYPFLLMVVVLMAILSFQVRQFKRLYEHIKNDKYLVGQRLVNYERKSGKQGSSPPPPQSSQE

Amino acid sequences for entries named in this document (tags omitted).
UniProt Q14534: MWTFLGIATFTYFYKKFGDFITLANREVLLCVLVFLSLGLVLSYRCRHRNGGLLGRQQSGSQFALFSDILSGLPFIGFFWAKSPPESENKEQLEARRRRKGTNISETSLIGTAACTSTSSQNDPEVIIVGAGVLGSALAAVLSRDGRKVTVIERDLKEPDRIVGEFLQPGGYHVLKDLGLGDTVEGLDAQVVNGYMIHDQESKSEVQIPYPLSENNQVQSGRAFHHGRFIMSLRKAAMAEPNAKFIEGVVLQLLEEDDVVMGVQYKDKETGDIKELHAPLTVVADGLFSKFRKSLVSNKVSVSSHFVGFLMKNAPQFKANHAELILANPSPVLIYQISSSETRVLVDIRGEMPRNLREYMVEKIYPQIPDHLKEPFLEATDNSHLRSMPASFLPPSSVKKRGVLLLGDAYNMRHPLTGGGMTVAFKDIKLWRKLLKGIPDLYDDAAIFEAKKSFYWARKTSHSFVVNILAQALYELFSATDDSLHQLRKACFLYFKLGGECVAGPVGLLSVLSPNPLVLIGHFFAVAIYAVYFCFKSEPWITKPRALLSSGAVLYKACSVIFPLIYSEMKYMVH

[1] = biological target: T2, MARCH6^L140A/L747A-FLAG (human) (UniProt O60337)
T2 sequence: T1 sequence with L140A, L747A

MARCH6^Y92V-FLAG (human) = biological target: T3, MARCH6^Y92V-FLAG (human) (UniProt O60337)
T3 sequence: T1 sequence with Y92V

[2] = biological target: T4, MARCH6^Y92V/Y96V-FLAG (human) (UniProt O60337)
T4 sequence: T1 sequence with Y92V, Y96V

MARCH6^Y96V-FLAG (human) = biological target: T5, MARCH6^Y96V-FLAG (human) (UniProt O60337)
T5 sequence: T1 sequence with Y96V

Measured: binding

SQLE (from UniProt Q14534 1-574)
binds: all assays above

Reference: paper PMC10776854
